PubChem BioAssay AID743454 | Peter MacCallum Cancer Centre | 2014

Assay: 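Search for knock-downs that restore vorinostat killing in resistant colon cancer cells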 (primary screen)
System: human HCT116-VR colon cancer cells, selected for vorinostat resistance
Reagent: siRNA pool against human genes, 40 nM siRNA pool
Time to read-out: vorinostat for 24 h, read-out about 72 h after transfection
Conditions: vorinostat at 2.5 µM final
Measurement: 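Two measures, CellTiter-Fluor viability and luminescent caspase 3/7 activity, each as fold change against same-plate mock wells, mean of duplicates, then screen-wide robust z-score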
Reading the numbers: viability robust z-score: higher = more viable cells than screen typical; caspase robust z-score: higher = more caspase 3/7 activity than screen typical
Call rule: 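a knock-down is a hit when classed RV1 or RV2 for lowered viability, or CA1 or CA2 for caspase activation; those lethal without drug were dropped; hits were retested singly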
Here is a random part of about 18,000 deposited reagents. Of all reagents, 450 (2.5%) are marked active. 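Single biological run; no consistent viability z cut-off exists, so the class columns, not z-scores, define the calls.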 Unmarked entries are inactive. No sequences are given here.

target gene	PubChem SID	viability hit class	caspase hit class	viability robust z-score	caspase robust z-score
SEMA4C	SID152153723	no change	no change	0.24	-0.92
NBPF9	SID135624712	no change	no change	0.1	-1.16
BDH1	SID152151086	no change	no change	0.35	-0.32
CYB5R5	SID135625167	no change	no change	0.83	2.19
HIC2	SID152154226	no change	no change	0.94	0.52
OR2J3	SID134329879	no change	no change	1.89	0.06
FTSJ3	SID134317595	no change	no change	-1.29	-0.45
GDF3	SID134310649	no change	no change	0.63	1.12
RWDD1	SID135624087	no change	no change	0.44	-0.87
TCEAL9	SID152147758	no change	no change	0.82	1.02
SPDYE3	SID135625135	no change	no change	0.11	-0.9
RASGEF1C	SID135623439	no change	no change	-0.62	0.88
PHKB	SID134312707	no change	no change	0.74	1.6
SLC44A1	SID152150108	no change	no change	-0.01	1.48
XRCC1	SID134314148	no change	no change	0.4	1.66
BMP1	SID134311221	no change	no change	0.06	-0.11
TEAD2	SID134316873	no change	no change	0.34	-0.43
ANKS1B	SID135621520	no change	no change	0.28	2.57
CD99L2	SID152151805	no change	no change	-0.55	0.34
ATL3	SID134315149	no change	no change	-0.7	-0.86
RORA	SID134309891	no change	no change	-1.07	1.27
SGSM3	SID152155964	no change	no change	0.5	0.1
SAMHD1	SID134318144	no change	no change	0.18	0.45
LARS2	SID134312082	no change	no change	1.3	-0.74
CD55	SID134310529	no change	no change	-0.25	-0.54
PPAN-P2RY11	SID135625685	no change	no change	-1.73	0.91
PLS1	SID134315700	no change	no change	-1.31	0.96
LAS1L	SID152155637	no change	no change	-0.78	0.15
KIF22	SID134310688	no change	no change	-0.31	0.57
PGBD2	SID135621332	no change	no change	-0.82	1.31
EXO5	SID134318387	no change	no change	0.7	0
B4GALT6	SID134316244	no change	no change	0.36	-0.72

A run of entries taken from the entries so far, as a working copy:
target gene	PubChem SID	viability hit class	caspase hit class	viability robust z-score	caspase robust z-score
ANKS1B	SID135621520	no change	no change	0.28	2.57
CD99L2	SID152151805	no change	no change	-0.55	0.34
ATL3	SID134315149	no change	no change	-0.7	-0.86
RORA	SID134309891	no change	no change	-1.07	1.27
SGSM3	SID152155964	no change	no change	0.5	0.1

Further entries:
target gene	PubChem SID	viability hit class	caspase hit class	viability robust z-score	caspase robust z-score
RNF213	SID152147115	no change	no change	-1.27	-1.03
RNF213	SID152156373	no change	no change	0.82	-0.25
RAI14	SID134318115	no change	no change	-1.22	2.35
OR51S1	SID152150228	no change	no change	-0.48	2.04
S1PR3	SID135620954	no change	no change	-1.21	1.86
S1PR3	SID152152548	no change	no change	0.44	3
CD53	SID152155785	no change	no change	-0.83	-0.82
CEMIP2	SID134324064	no change	no change	0.69	-0.35
SOX13	SID134323783	no change	no change	-0.68	-0.46
LHX6	SID152151312	no change	no change	-0.62	0.78
PAK6	SID56478794	no change	no change	1.22	0.11
CLK4	SID56478876	no change	no change	-0.29	-1.15
IRF2	SID135622181	no change	no change	1.38	-0.26
RBMY1E	SID134329959	no change	no change	-0.3	-0.92
DPEP3	SID134313220	no change	no change	-1.04	-1.12
ADSL	SID135622029	no change	no change	1.53	-0.02
TOR1AIP2	SID134318229	no change	no change	0.3	0.64
TOR1AIP2	SID152150266	no change	no change	1.43	1.95
NEIL3	SID152156376	no change	no change	0.48	-0.24
BIRC2	SID152156419	no change	no change	-0.58	1.96
ZNF177	SID134323540	no change	no change	1.19	-0.11
PSMC3	SID152150423	no change	no change	-4.66	1.14
XG	SID134317039	no change	no change	0.29	-0.32
MTERF3	SID134320742	no change	no change	1.12	0.09
CLNS1A	SID152147396	no change	no change	-0.07	1.27
